Source: the supplement of paper PMC4840960
Where a name gives a salt, the structure may show the parent alone. ± gives the standard deviation of the averaged measurements. The list shows a part of the results. Part of the spread comes from offsets between plates or batches.

Tested on: E18 rat cortical neuron-glia co-culture
Test: total nuclei (DAPI) / Olig2+ nuclei (ratio); higher = more depletion of OPC/OL lineage cells
Details: treatment time: 8 days (DIV5-DIV13)

CC(C)OC(=O)CCC/C=C\C[C@@H]1[C@@H](CC[C@@H](O)CCc2ccccc2)[C@H](O)C[C@@H]1O [Latanoprost]
total nuclei (1 µM): 2.95 | total nuclei (5 µM): 3.1

NCCc1ccc(O)c(O)c1 [Dopamine]
total nuclei (1 µM): 3.2 | total nuclei (5 µM): 2.9

CC(C)OC(=O)C(C)(C)Oc1ccc(C(=O)c2ccc(Cl)cc2)cc1 [Fenofibrate]
total nuclei (1 µM): 3.81 | total nuclei (5 µM): 8

C[C@@H]1C[C@H]2[C@@H]3C[C@H](F)C4=CC(=O)C(Cl)=C[C@]4(C)[C@@]3(F)[C@@H](O)C[C@]2(C)[C@@]1(O)C(=O)CO [Halometasone hydrate]
total nuclei (1 µM): 4.18 | total nuclei (5 µM): 3.9

CCCN[C@H]1CCc2nc(N)sc2C1 [Pramipexole]
total nuclei (1 µM): 4.33 ± 2 | total nuclei (5 µM): 4.05 ± 1.6

C=CC1=C(C(=O)O)N2C(=O)[C@@H](NC(=O)/C(=N\OCC(=O)O)c3csc(N)n3)[C@H]2SC1 [Cefixime]
total nuclei (1 µM): 2.81 | total nuclei (5 µM): 3.6

CC(C)NCC(O)c1ccc(O)c(O)c1 (configuration not stated) [Isoproterenol]
total nuclei (1 µM): 4.48 | total nuclei (5 µM): 4.6

CN1CCC(=C2c3ccccc3CC(=O)c3sccc32)CC1 [Ketotifen]
total nuclei (1 µM): 2.71 | total nuclei (5 µM): 3.1

CCOC(=O)[C@H](CCc1ccccc1)N[C@@H](C)C(=O)N1[C@H](C(=O)O)C[C@@H]2CCC[C@@H]21 [Ramipril]
total nuclei (1 µM): 4.45 ± 0.64 | total nuclei (5 µM): 4.35 ± 0.49

O=C1CCc2ccc(OCCCCN3CCN(c4cccc(Cl)c4Cl)CC3)cc2N1 [Aripiprazole]
total nuclei (1 µM): 4.03 | total nuclei (5 µM): > 40

Cc1nc(=O)c2cc(CN(C)c3ccc(C(=O)N[C@@H](CCC(=O)O)C(=O)O)s3)ccc2[nH]1 [Raltitrexed]
total nuclei (1 µM): 9.32 | total nuclei (5 µM): 18.9

CNCCC(Oc1ccc(C(F)(F)F)cc1)c1ccccc1 (configuration not stated) [Fluoxetine hydrochloride]
total nuclei (1 µM): 4 | total nuclei (5 µM): > 40

Nc1cc(N2CCCCC2)nc(N)[n+]1[O-] [Minoxidil]
total nuclei (1 µM): 2.89 | total nuclei (5 µM): 3.2

CCOC(=O)OC(C)OC1=C(C(=O)Nc2ccccn2)N(C)S(=O)(=O)c2ccccc21 (configuration not stated) [Ampiroxicam]
total nuclei (1 µM): 3.78 | total nuclei (5 µM): 4.7

O=c1c(O[C@@H]2O[C@H](CO)[C@H](O)[C@H](O)[C@H]2O)c(-c2ccc(O)c(O)c2)oc2cc(O)cc(O)c12 [Hyperoside]
total nuclei (1 µM): 7.55 | total nuclei (5 µM): > 40

CN(C)CCCN1c2ccccc2CCc2ccccc21 [Imipramine]
total nuclei (1 µM): 2.97 | total nuclei (5 µM): 3.3

O=C(O[C@H]1[C@H](Oc2ccccc2COC(=O)C2(O)C=CCCC2=O)O[C@H](CO)[C@@H](O)[C@@H]1O)c1ccccc1 (some centres not stated) [Tremulacin]
total nuclei (1 µM): 2.88 | total nuclei (5 µM): 6.2

CC(=O)Nc1nnc(S(N)(=O)=O)s1 [Acetazolamide]
total nuclei (1 µM): 4.11 | total nuclei (5 µM): 4.1

O=C1CC2(CCCC2)CC(=O)N1CCCCN1CCN(c2ncccn2)CC1 [Buspirone]
total nuclei (1 µM): 2.38 | total nuclei (5 µM): 3.1

CCOC(=O)c1ccc(OC(=O)CCCCCNC(=N)N)cc1 [Gabexate]
total nuclei (1 µM): 3.38 | total nuclei (5 µM): 3.8

COc1cc2nc(N3CCN(C(=O)c4ccco4)CC3)nc(N)c2cc1OC [Prazosin]
total nuclei (1 µM): 3.3 | total nuclei (5 µM): 5.9

CC(C)NCC(O)COc1ccc(COCCOC(C)C)cc1 (configuration not stated) [Bisoprolol]
total nuclei (1 µM): 3.92 | total nuclei (5 µM): 4.1

CC1=C(/C=C/C(C)=C/C=C/C(C)=C\C(=O)O)C(C)(C)CCC1 [Isotretinoin]
total nuclei (1 µM): 3.8 | total nuclei (5 µM): 4.3

OC(CCN1CCCC1)(c1ccccc1)C1CCCCC1 (configuration not stated) [Procyclidine]
total nuclei (1 µM): 2.91 | total nuclei (5 µM): 3.1

CN1C(C(=O)Nc2ccccn2)=C(O)c2ccccc2S1(=O)=O [Piroxicam]
total nuclei (1 µM): 2.86 | total nuclei (5 µM): 2.9

CCOc1ccc2ccccc2c1C(=O)N[C@@H]1C(=O)N2[C@@H]1SC(C)(C)[C@@H]2C(=O)O [Nafcillin]
total nuclei (1 µM): 2.63 | total nuclei (5 µM): 2.7

CCOC(=O)CCC(=O)O[C@H]1[C@H](O[C@@H]2[C@@H](C)[C@H](O[C@H]3C[C@@](C)(OC)[C@@H](O)[C@H](C)O3)[C@@H](C)C(=O)O[C@H](CC)[C@@](C)(O)[C@H](O)[C@@H](C)C(=O)[C@H](C)C[C@@]2(C)O)O[C@H](C)C[C@@H]1N(C)C [Erythromycin Ethylsuccinate]
total nuclei (1 µM): 2.85 | total nuclei (5 µM): 2.8

CCN(CC)CCOC(=O)c1ccc(N)cc1 [Procaine]
total nuclei (1 µM): 2.68 | total nuclei (5 µM): 2.5

CCOC(=O)N1CCC(=C2c3ccc(Cl)cc3CCc3cccnc32)CC1 [Loratadine]
total nuclei (1 µM): 3.87 | total nuclei (5 µM): 4.3

Cc1c(C(=O)NN2CCCCC2)nn(-c2ccc(Cl)cc2Cl)c1-c1ccc(I)cc1
total nuclei (1 µM): 3.39 | total nuclei (5 µM): > 40

CCN1CCCC1CNC(=O)c1cc(S(N)(=O)=O)ccc1OC (configuration not stated) [Sulpiride]
total nuclei (1 µM): 3.5 | total nuclei (5 µM): 4
